Drawing on patent US20130344509A1 (published 2013), this text covers binding for two molecules.

Chains of the proteins cited; added tags and fusions are not shown. Lines headed by an entry give the natural chain unless they say otherwise; changes in a name come on top.
UniProt P09758: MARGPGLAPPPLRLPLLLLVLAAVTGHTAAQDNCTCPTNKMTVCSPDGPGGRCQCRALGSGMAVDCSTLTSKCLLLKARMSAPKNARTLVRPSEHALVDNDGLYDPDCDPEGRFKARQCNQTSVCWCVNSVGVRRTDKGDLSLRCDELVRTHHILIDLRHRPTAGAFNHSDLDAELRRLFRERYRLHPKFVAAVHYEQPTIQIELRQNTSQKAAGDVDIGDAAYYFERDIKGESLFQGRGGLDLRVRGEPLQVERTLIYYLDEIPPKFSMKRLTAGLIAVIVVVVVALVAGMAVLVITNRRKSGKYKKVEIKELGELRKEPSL

Experiment [1] has as its target recombinant hTACSTD2-Fc-His protein (Creative BioMart) (human) (UniProt P09758). Briefly: low-density antigen-coated ELISA, plate coated with 0.1 µg/mL hTROP-2 (hTACSTD2-Fc-His). On the technique in general: In an ELISA, binding on a coated surface is turned into a signal by an enzyme label.
For experiment [2] the target is unchanged. The experiment in a line: low-density antigen-coated ELISA, culture supernatants.
Experiment [3] has the same target. The experiment in a line: high-density antigen-coated ELISA, plate coated with 1 µg/mL hTROP-2.

Where a chain is given by its changes, count along the chain named. In names and notes the source's numbering stands. No constants are given. Whether binding was seen depends on the method and setting. Some entries that bind do so weakly or less than the wild type.

B1: HuK5-70-2 antibody (HuK5-70 R44G mutant antibody) (antibody, V domains shown)
VH: QVQLVQSGAEVKKPGASVKVSCKASGYTFTIYWINWVRQAPGQGLEWIGNIYPSDSYTNYNQKFKDKATLTVDTSASTAYMELSSLRSEDTAVYYCTRTSMADYWGQGTLVTVSS
VL: EIVLTQSPATLSLSPGERATLSCRASQSIGTSIHWYQQKPGQAPRLLIKYASESISGIPARFSGSGSGTDFTLTISSLEPEDFAVYYCQQSNSWPFTFGQGTKVEIK
Consider B1, for which the binding result in experiment [1], in experiment [2] and in experiment [3] was “binds” throughout.

B2: humanized K5-70 antibody (HuK5-70) (antibody, V domains shown)
VH: B1 VH with G44R
VL: B1 VL
Consider B2, for which, in experiment [3], the binding result was “binds”.
